Earlier results as cited in US9913873B2, “Turmeric extract containing soft pastilles” (priority 2013, dated 2018).

Details: background statement; cited from earlier work

## COc1cc(/C=C/C(=O)CC(=O)/C=C/c2ccc(O)c(OC)c2)ccc1O [Curcumin]
  Solubility in water: insoluble
